Laboratory results taken from US20250000838A1, “Uses of Inhibitors of YTH Domain Family Proteins in the Management of Cognitive or Developmental Disorders” (Emory University, priority 2021, published 2025).
At least one compound was matched to its structure with a doubt left.

Test system: Wild-type differentiated neurons
Assay: Nascent protein synthesis after KCl depolarization in differentiated neurons
Type: cell-based
Settings: ten-minute to two-hour window after KCl

SMILES: O=C(O)c1ccc2c(c1)nc(Nc1cccc(Cl)c1)c1ccncc12 [CX-4945, Silmitasertib]
- nascent protein synthesis elevated by KCl depolarization: ablated the elevated protein synthesis
